Measurements taken from patent US20260184780A1.

What was measured:
[1] = target: human PAR4 on isolated human platelets (human); assay: flow cytometry on isolated human platelets
[2] = target: human PAR4 on isolated human platelets (human); assay: flow cytometry against an isotype control
[3] = target: human PAR4 on isolated human platelets (human); assay: flow cytometry on isolated human platelets, delta geometric mean fluorescence
[4] = target: human PAR4 on isolated human platelets (human); assay: flow cytometry on isolated human platelets, 5A.RC3 at 10 ug/mL

binding [1]: binds
binding [2]: binds
binding [3]: binds
binding [4]: binds
B1: 5A.RC3.F10b.H4b (antibody, IgG2a, V domains shown)
VH: QVQLVESGGGVVQPGRSLRLSCAASGFTLSNYGMHWVRQAPGKGLEWVSVIWYDGSNKHYADSVKGRFTISRDNSKNTLYLQMNSLRAEDTAVYYCARESIVEVLPPFDYWGQGTLVTVSS
VL: KIVLTQSPGTLSLSPGERVTLSCRASQRVRNNYLAWFQQKPGQAPRLFIYGASSRATGIPDRFSGSGSGTDFIFTISRLEPEDFAVYYCQQYGNSYTFGQGTKLEIK

These are yes or no findings as the source states them, for the method shown. Binding can be weak; no strength is given.
